The nature of this assay: qHTS Assay for Lipid Storage Modulators in Drosophila S3 Cells.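 On cell number change: cells counted by Cell Tracker Red CMTPX staining in the red channel.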 Particulars: BODIPY lipid droplet fluorescence, 18-24 h; for cell number change: measured here: cell count max response, cells fed with added oleic acid. In a few lines:
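Drosophila S3 cells got compounds at several concentrations plus oleic acid (400 uM solution). Laser-scanning cytometry with 488 nm excitation read lipid droplets at 500-530 nm and cells at 575-640 nm. Percent activity was relative to 20 uM Triacsin C.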

Setting [1] is: measured here: lipid fluorescence (Fed channel) AC50, cells fed with added oleic acid.
[2] abbreviates: measured here: cell number channel AC50, cells fed with added oleic acid.

SMILES strings stand for the structures. The list shows a part of the results. These are further read-outs of the screen, such as a control signal, another cell line or another target. No call is given for them. Most of these compounds were active or inconclusive in the main read-out, so they are no random draw. Potencies come from curve fits of mixed quality, noted in brackets.

Regarding `CC1(C)Cc2c(C#N)c(SCc3ccccc3)nc(N3CCOCC3)c2CO1`, the cell number change is -3.24%.
For `O=C(NCCN1C(=O)C2C3C=CC(C3)C2C1=O)Nc1ccccc1` (stereo not drawn), the half-maximal activity concentration (AC50) under setting [1] is 0.58 µM [falling, single point].
In the case of `Cc1ccc(C(C)C)c(OCC(=O)Nc2ccccc2N2CCN(C)CC2)c1`, the cell number change is -48%. The AC50 under setting [2] was 6.51 µM [falling, partial curve]. Under setting [1], the AC50 was 7.31 µM [falling, partial curve].
For `CCOc1ccc(-c2cc(C(=O)N3CCCC3)c3ccccc3n2)cc1`, the cell number change came out at 10.4%.
Take `CCOc1ccc(C(=O)NCC(=O)NCC2CCCCC2)cc1OCC`: the cell number change turned out to be 2.56%. Under setting [2], the AC50 is 2.31 µM [rising, partial curve, poor fit]. Moreover, the AC50 under setting [1] is 29.1 µM [rising, single point].
As for `CCCNC(=O)COc1ccc2c(=O)c(Oc3ccccc3F)coc2c1`, the cell number change was determined as 30.4%. Besides, the AC50 under setting [2] was 1.3 µM [rising, partial curve].
`Cc1cccn2c(=O)c3cc(C(=O)NC4CCCC4)c(=N)n(CCCN4CCOCC4)c3nc12`: the cell number change is 3.91%. Further, the AC50 under setting [1] is 29.1 µM [falling, single point].
Take `Cc1cc2c(=O)n(CC(=O)NCC(=O)N3CCN(Cc4ccccc4)CC3)cnc2s1`: under setting [1], the concentration at half-maximal activity (AC50) was 0.13 µM [falling, full curve].
For `COC(=O)c1nnn(CC(=O)Nc2cc(Cl)ccc2C)c1C(=O)OC`, the cell number change is -1.07%. In addition, the half-maximal activity concentration (AC50) under setting [1] is 23.1 µM [rising, single point].
`CCOc1ccc(NC(=O)CN2CCc3ccccc3C2)cc1`: the cell number change is -3.3%. For the same compound, the half-maximal activity concentration (AC50) under setting [1] is 1.16 µM [rising, full curve].
Regarding `O=c1oc2ccccc2nc1/C=C(O)/C=C/c1ccc(F)cc1`, the cell number change worked out at 12.1%. For the same compound, under setting [1], the AC50 is 0.58 µM [rising, partial curve, poor fit].
On to `CC(C)C(=O)Nc1cccc(C(=O)NCc2ccc(S(N)(=O)=O)cc2)c1`, for which the cell number change is -49.4%. Further, the half-maximal activity concentration (AC50) under setting [2] was 29.1 µM [falling, single point]. Under setting [1], the concentration at half-maximal activity (AC50) is 29.1 µM [falling, single point].
Regarding `COC(=O)c1sc(C(F)(F)F)c(-c2ccccc2)c1S(=O)(=O)N(C)C`, the cell number change was -23.9%. Moreover, under setting [1], the concentration at half-maximal activity (AC50) is 16.4 µM [falling, single point].
For `CC(=NC1CCN(Cc2ccccc2)CC1)c1c(O)[nH]c(=O)[nH]c1=O`, the cell number change was -3.15%. Further, the concentration at half-maximal activity (AC50) under setting [1] is 3.26 µM [falling, single point].
On to `Cc1cc(C)n2cc(CSc3nnc(N)s3)nc2n1`, for which the cell number change came out at 79.8%. Also, under setting [2], the half-maximal activity concentration (AC50) is 23.1 µM [rising, partial curve]. Moreover, the half-maximal activity concentration (AC50) under setting [1] was 14.6 µM [rising, partial curve].
Turning to `CCOc1ccccc1C1C(C#N)=C(N)Oc2cc(N)ccc21` (stereo not drawn), the cell number change came out at 25.5%. Besides, the AC50 under setting [2] was 0.164 µM [rising, full curve]. For the same compound, the concentration at half-maximal activity (AC50) under setting [1] was 0.13 µM [rising, full curve, poor fit].
As to `COC(=O)c1sc2nc(C)nc(SCC(=O)N3CCC(C(=O)O)CC3)c2c1C`, the cell number change is 92.6%. Besides, the AC50 under setting [2] was 29.1 µM [rising, single point]. Further, the AC50 under setting [1] is 29.1 µM [rising, single point].
For `O=C(CSc1ncn[nH]1)Nc1ccc(S(=O)(=O)N2CCCC2)cc1`, the cell number change was 40.4%. In addition, under setting [2], the AC50 is 18.4 µM [rising, single point].
For `CC(NC(=O)C(NS(=O)(=O)c1cccc2nsnc12)C(C)C)c1ccccc1` (stereo not drawn), the cell number change is -3.89%. Besides, the concentration at half-maximal activity (AC50) under setting [1] was 0.517 µM [rising, single point].
Consider `CCN(C(=O)CN1C(=O)COc2ccc(S(=O)(=O)N3CCCCCC3)cc21)c1cccc(C)c1`, for which the cell number change was 19.1%. For the same compound, the concentration at half-maximal activity (AC50) under setting [1] was 16.4 µM [falling, partial curve].
For the compound `COc1ccccc1C(=O)NCC(=O)OCC(=O)N(CC(C)C)c1c(N)n(Cc2ccccc2)c(=O)[nH]c1=O`, the cell number change is -6.83%. Also, the AC50 under setting [1] is 6.51 µM [falling, partial curve, poor fit].
For the compound `COC(=O)COc1ccc(S(=O)(=O)N2CCOCC2)cc1`, the cell number change was 0.527%. For the same compound, the AC50 under setting [1] was 6.51 µM [falling, single point].
As to `CCC(c1nnnn1Cc1ccc2c(c1)OCO2)N1CCN(c2ccccc2)CC1` (stereo not drawn), the cell number change was -33%. In addition, under setting [2], the half-maximal activity concentration (AC50) is 6.51 µM [falling, partial curve, poor fit].
As for `Cc1ncsc1CCC(=O)N1CCCC(Nc2ccc(F)c(F)c2)C1` (stereo not drawn), the cell number change came out at 14.2%. Also, the concentration at half-maximal activity (AC50) under setting [1] is 2.91 µM [rising, full curve].
Consider `COc1cccc(OC)c1C(=O)N1CCN(Cc2cccnc2)CC1`, for which the cell number change was 20.2%. Besides, under setting [1], the half-maximal activity concentration (AC50) was 1.84 µM [rising, partial curve, poor fit].
In the case of `O=C(NCc1cccs1)c1cnc2sccn2c1=O`, the cell number change was found to be 16.6%. For the same compound, under setting [2], the AC50 is 0.517 µM [rising, partial curve]. Besides, the AC50 under setting [1] was 16.4 µM [rising, single point].
As to `COc1ccc(C2=NCCn3cccc32)c(OC)c1`, the cell number change came out at 0.344%. In addition, the concentration at half-maximal activity (AC50) under setting [1] was 32.6 µM [falling, single point].
`O=Nc1c2nc3ccccc3n(O)c-2c2ccccc12`: the cell number change is -33.5%. Besides, the AC50 under setting [2] is 14.6 µM [falling, partial curve, poor fit]. Further, under setting [1], the half-maximal activity concentration (AC50) was 18.4 µM [falling, partial curve, poor fit].
Turning to `CCOCCCNc1nc(-c2ccccc2)nc2ccccc12`, under setting [1], the concentration at half-maximal activity (AC50) is 3.66 µM [falling, full curve].
For the compound `Clc1ccc(-n2cnnn2)cc1`, the cell number change was -75.8%. Besides, the AC50 under setting [2] was 23.1 µM [falling, partial curve, poor fit]. For the same compound, under setting [1], the concentration at half-maximal activity (AC50) was 23.1 µM [falling, partial curve].
With `O=C(CCC1CCCN(Cc2cccc(Cl)c2)C1)NCc1ccccc1F` (stereo not drawn), the cell number change is 11.5%. In addition, the concentration at half-maximal activity (AC50) under setting [1] was 29.1 µM [rising, single point].
Turning to `COc1ccc(CNC(=O)OCc2nccnc2C(=O)Nc2ccc(Br)cn2)cc1`, the cell number change was -10.5%. Further, under setting [1], the AC50 is 1.16 µM [rising, full curve].
Turning to `Cn1nccc1C(=O)NC(=S)Nc1cc(Cl)cc(Cl)c1`, the cell number change amounted to 21.8%.
In the case of `COc1ccc2c(c1)c(=O)cc(C)n2CC(=O)NCc1ccco1`, the cell number change was found to be 1.79%.
For the compound `COc1ccc(C(CNC(=O)c2ccc(NS(=O)(=O)c3ccccc3)cc2)N2CCOCC2)cc1` (stereo not drawn), the cell number change was -36.1%. For the same compound, the half-maximal activity concentration (AC50) under setting [2] was 23.1 µM [falling, single point].
As for `Cc1ccc(N(C(C)C(=O)Nc2ccc(S(=O)(=O)N3CCOCC3)cc2)S(C)(=O)=O)cc1C` (stereo not drawn), the cell number change is -12.5%. Under setting [2], the concentration at half-maximal activity (AC50) is 0.13 µM [falling, partial curve, poor fit]. Moreover, under setting [1], the AC50 was 13 µM [falling, single point].
Regarding `CS(=O)(=O)N1CCN(c2ccc(NC(=O)c3ccc(-c4ccc(Cl)cc4)o3)cc2)CC1`, the cell number change was -32.9%. For the same compound, the concentration at half-maximal activity (AC50) under setting [2] was 20.6 µM [falling, single point]. The AC50 under setting [1] is 14.6 µM [falling, single point].
`O=C(O)c1[nH]c2ccccc2c1-c1ccccc1`: the cell number change is -31.3%. Under setting [2], the concentration at half-maximal activity (AC50) is 5.8 µM [falling, full curve, poor fit].
On to `O=C(CN1CCN(c2ccc(F)cc2)CC1)N1CCC(Cc2ccccc2)CC1`, for which the cell number change was -0.429%. For the same compound, the AC50 under setting [1] was 6.51 µM [falling, single point].
Regarding `Cc1ccn(S(=O)(=O)c2ccc(C(C)(C)C)cc2)n1`, the cell number change is -13.4%. In addition, the AC50 under setting [1] was 25.9 µM [rising, single point].
Regarding `CC(=O)Nc1ccc(NC(=O)CN(C)S(=O)(=O)c2ccc3ccccc3c2)cc1`, the cell number change worked out at 3.78%. Besides, under setting [1], the AC50 is 16.4 µM [rising, single point].
Take `COc1ccc(NC(=S)NC(=O)Cc2ccccc2)cc1`: the cell number change was 6.93%. In addition, the AC50 under setting [2] was 1.84 µM [rising, partial curve]. Further, the AC50 under setting [1] was 6.51 µM [rising, single point].
`CC(C)(CNC(=O)c1ccc(-c2ccccc2Cl)o1)N1CCOCC1`: the AC50 under setting [1] was 2.06 µM [rising, partial curve].
Take `Cc1cc(Cl)cc(Cl)c1OCC(=O)NCc1ccco1`: the cell number change was -13%. For the same compound, the half-maximal activity concentration (AC50) under setting [1] was 29.1 µM [rising, partial curve, poor fit].
On to `CCCNS(=O)(=O)c1ccc(CCC(=O)NCc2ccc3c(c2)OCO3)cc1`, for which the cell number change came out at 13.4%.
With `Cn1c(SCC(=O)NCc2ccco2)nnc1-c1cccs1`, the cell number change is 5.33%.
Turning to `COc1ccc(Nc2nnc(SCc3cn4c(C)cccc4n3)s2)cc1`, the cell number change amounted to 12.9%. Moreover, the concentration at half-maximal activity (AC50) under setting [1] is 0.259 µM [rising, full curve].
As for `O=C(O)CSCC(=O)N1CCN(S(=O)(=O)c2ccccc2)CC1`, the cell number change was determined as 0.622%. Besides, the AC50 under setting [2] is 0.82 µM [falling, partial curve]. The half-maximal activity concentration (AC50) under setting [1] was 6.51 µM [falling, partial curve, poor fit].
As to `COc1ccc(S(=O)(=O)N(CCC(=O)O)Cc2ccccc2)cc1`, the cell number change was -16.2%. For the same compound, under setting [2], the half-maximal activity concentration (AC50) was 0.259 µM [falling, full curve, poor fit]. Further, under setting [1], the AC50 was 1.64 µM [falling, partial curve].
As to `CC(C)OCCOc1ccc2oc(-c3ccco3)cc(=O)c2c1`, the cell number change is -4.91%. Moreover, the AC50 under setting [1] was 29.1 µM [falling, single point].
As for `O=C(CN1CCN(Cc2ccccc2)C1=O)NCCCN1CCOCC1`, the cell number change stood at 2.64%. Further, the AC50 under setting [1] is 6.51 µM [falling, single point].
As to `Cc1ccc(OCC(=O)Nc2cccnc2Cl)cc1C`, the cell number change was -25%.
In the case of `O=C(CSc1nnc(C2CC2)n1CC1CCCO1)Nc1ccc(Cl)cc1` (stereo not drawn), the cell number change is -23%. Under setting [1], the AC50 is 0.731 µM [rising, full curve, poor fit].
For the compound `O=C(Nc1cnc2ccccc2c1)c1cccc(-n2cnnn2)c1`, the cell number change came out at 32.8%. Moreover, under setting [2], the half-maximal activity concentration (AC50) is 23.1 µM [rising, single point]. Under setting [1], the concentration at half-maximal activity (AC50) is 29.1 µM [rising, single point].
On to `COC(=O)CSc1nnc(-c2sc3cc(OC)ccc3c2Cl)n1C`, for which the cell number change is -10.4%. Further, the AC50 under setting [1] was 20.6 µM [falling, single point].
Turning to `COc1ccc(OC)c(NC(=O)C2CCN(c3cc(-c4ccccc4)nc4ncnn34)CC2)c1`, the AC50 is, setting by setting: under setting [2], 3.26 µM [rising, partial curve]; under setting [1], 2.59 µM [rising, partial curve].
Regarding `CCCCC(=O)Nc1ccc(C(=O)Nc2ccc3c(c2)OCO3)cc1`, the cell number change turned out to be 2.77%. Moreover, the AC50 under setting [1] is 0.058 µM [rising, full curve, poor fit].

The values above are taken from PubChem BioAssay AID2685 (National Center for Advancing Translational Sciences (NCATS), 2010).
